Experimental findings from PMC9864808, “Exploring Mannosylpurines as Copper Chelators and Cholinesterase Inhibitors with Potential for Alzheimer’s Disease” (Pharmaceuticals, 2022) are described below.

SMILES strings stand for the structures.

A short description of the data set: UV-Visible chelating study, copper. As to conditions: UV-Visible absorption, ion up to 10 μM, water/DMSO. The method, then:
The chelating activity of all purine nucleoside probes was evaluated by the UV-Visible method in order to determine compounds’ absorption spectra in the absence and in the presence of Cu^2+ at concentrations ranging from 1 μM to 10 μM. […] The resulting wavelength shift from λ = 280 to λ = 325 nm indicates a conformational rearrangement induced by interaction with Cu^2+.
UV-Visible spectroscopy offers the advantage of high sensitivity towards small changes that affect the electronic properties of ligand receptors, so absorption spectra of all reported compounds have been evaluated by recording UV-visible properties in subsequent conditions: 1.5 mL 1 × 10^−4M of the probe are added to 1.5 mL 2 × 10^−5M of each ion chloride salt’s solution (Copper Chloride (CuCl2), Zinc Chloride (ZnCl2), Iron (II) Chloride (FeCl2) and Aluminum Chloride (AlCl3)). A mixture of distilled water/DMSO 95:5 has been selected as a solvent for compounds 5–10 and 12. For compounds 14–16, the selected solvent was a mixture of distilled water/DMSO 90:10 due to poor water solubility. Furthermore, a titration assay of each compound has been carried out by adding increasing concentration of selected ion (final ion concentration = 1 µM, 2 µM, 3 µM, 5 µM, and 10 µM).
As for `C[C@@H]1O[C@@H](n2cnc3c(NC(=O)c4ccccc4)ncnc32)[C@H](OCc2ccccc2)[C@H](OCc2ccccc2)[C@H]1OCc1ccccc1` [Compound 15, 6-benzamido-9-(6-deoxy-2,3,4-tri-O-benzyl-α-L-mannopyranosyl)purine], the “wavelength after shift induced by interaction with Cu^2+” value (“wavelength after shift induced” below) came to 334 nm.
Turning to `CC(=O)O[C@@H]1[C@@H](OC(C)=O)[C@H](C)O[C@@H](n2cnc3c(NC(=O)c4ccccc4)ncnc32)[C@@H]1OC(C)=O` [Compound 12, 6-benzamido-9-(6-deoxy-2,3,4-tri-O-acetyl-α-L-mannopyranosyl)purine], the “wavelength after shift induced” value was found to be 325 nm.
For `C[C@@H]1O[C@H](n2cnc3c(NC(=O)c4ccccc4)ncnc32)[C@H](OCc2ccccc2)[C@H](OCc2ccccc2)[C@H]1OCc1ccccc1` [Compound 16, 6-benzamido-9-(6-deoxy-2,3,4-tri-O-benzyl-β-L-mannopyranosyl)purine], the “wavelength after shift induced” value worked out at 345 nm.
